Measurements reported in the supplement of paper PMC12889115.
Some of the results follow. Values are raw readings; no control value is given beside them.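 First-pass screen: polymyxin B was added at a level that permeabilizes the Salmonella outer membrane while sparing the inner membrane. DMSO wells, with and without polymyxin B, defined maximum growth. Because plates differed from one another, each plate's data were ranked separately and the compounds with the lowest OD600 were carried forward as hits.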

Tested on: Salmonella enterica serovar Typhimurium SL1344
Test: bacterial growth OD600 after 18 h with compound and polymyxin B; higher = more bacterial growth (less inhibition)
Settings: 50 µM, Mueller-Hinton broth

For `FC(F)(F)c1cccc(Cc2noc(CN3CCCC(OCc4cccnc4)C3)n2)c1` (configuration not stated), the “bacterial growth OD600” value (polymyxin B 1 µg/mL) was 0.75.

In the case of `Cc1c(C(C)NC(=O)c2ccccc2-c2ncc[nH]2)cnn1-c1ccccn1` (configuration not stated), the “bacterial growth OD600” value (polymyxin B 1 µg/mL) is reported as 1.23.

In the case of `O=C1CC(CC(=O)N2CCCC2c2nccs2)(c2cccc(F)c2)C(=O)N1Cc1cccnc1` (configuration not stated), the “bacterial growth OD600” value (polymyxin B 0.75 µg/mL) is reported as 0.958.

`O=C(CC1CC1)N1CCCC(CCc2c(F)cccc2F)C1` (configuration not stated) was tested, and the “bacterial growth OD600” value (polymyxin B 0.75 µg/mL) was 0.48.

`COCc1c(C(=O)NCc2cccnc2)cnn1-c1ncc2c(n1)-c1ccccc1CCC2` was tested, and the “bacterial growth OD600” value (polymyxin B 0.75 µg/mL) was 0.745.

For `CN(Cc1ccccc1)c1ncccc1CNC(=O)CN1CC(=O)NC1=O`, the “bacterial growth OD600” value (polymyxin B 1 µg/mL) was 0.886.

With `COc1cccc(CN2CCN(C3CCCC3)C(CCO)C2)c1` (configuration not stated) the “bacterial growth OD600” value (polymyxin B 1 µg/mL) was 0.85.

In the case of `O=C(CSc1ccccc1)N1CCCC(N2CCN(c3cccc(Cl)c3)CC2)C1` (configuration not stated), the “bacterial growth OD600” value (polymyxin B 1 µg/mL) is reported as 0.688.

With `O=C(CN1Cc2ccccc2OC(c2ccccc2F)C1)NCC(c1ccncc1)N1CCOCC1` (configuration not stated) the “bacterial growth OD600” value (polymyxin B 0.75 µg/mL) was 0.646.

For `COc1cccc(-c2cnnc(NC(C)CCn3cccn3)n2)c1` (configuration not stated), the “bacterial growth OD600” value (polymyxin B 0.75 µg/mL) was 0.659.

For `CCC1CN(CCNC(=O)Cc2cccc(C)c2)Cc2cc(OC)ccc2O1` (configuration not stated), the “bacterial growth OD600” value (polymyxin B 0.75 µg/mL) was 0.758.

In the case of `COc1ccc(S(=O)(=O)NCC2CCCN(C(=O)CNC(C)=O)C2)cc1` (configuration not stated), the “bacterial growth OD600” value (polymyxin B 1 µg/mL) is reported as 0.822.

In the case of `COc1cc(C(=O)N(Cc2cnn(C)c2)C(C)C)ccc1OC1CCN(C(C)=O)CC1`, the “bacterial growth OD600” value (polymyxin B 1 µg/mL) is reported as 0.859.

In the case of `COc1ccc(C(CC(=O)N(C)Cc2ccon2)c2ccccc2)cc1` (configuration not stated), the “bacterial growth OD600” value (polymyxin B 1 µg/mL) is reported as 0.664.

With `CC(C)c1cc(C(=O)N2CCCC(Nc3ccc4c(c3)OCCO4)C2)on1` (configuration not stated) the “bacterial growth OD600” value (polymyxin B 1 µg/mL) was 0.94.

With `CSc1ncccc1C(=O)N1CCC(C(Cc2ccccc2)N(C)C(=O)c2ccoc2C)CC1` (configuration not stated) the “bacterial growth OD600” value (polymyxin B 0.75 µg/mL) was 0.758.

In the case of `O=C(c1cccnc1)N1CCC(Oc2ccccc2C(=O)N2CCc3ccccc3C2)CC1`, the “bacterial growth OD600” value (polymyxin B 1 µg/mL) is reported as 1.28.

For `Cc1cc(C(=O)NCC2CCCN(S(=O)(=O)c3ccc(C)s3)C2)no1` (configuration not stated), the “bacterial growth OD600” value (polymyxin B 0.75 µg/mL) was 0.66.

In the case of `COc1ccc(-c2noc(CN3CCCC(C(=O)c4cccnc4)C3)n2)c(OC)c1OC` (configuration not stated), the “bacterial growth OD600” value (polymyxin B 1 µg/mL) is reported as 0.991.

In the case of `CC(NC1CCN(c2ccc(C(=O)N(C)C)cc2)CC1)c1ccc(Cl)cc1` (configuration not stated), the “bacterial growth OD600” value (polymyxin B 0.75 µg/mL) is reported as 0.612.

In the case of `CCS(=O)(=O)c1ncc(CN2CCCC(C)C2)n1CCCc1ccccc1` (configuration not stated), the “bacterial growth OD600” value (polymyxin B 1 µg/mL) is reported as 0.002.

In the case of `CCC(O)CNC(=O)C1CCN(c2nc(-c3ccccc3)nc3c2CCC3)CC1` (configuration not stated), the “bacterial growth OD600” value (polymyxin B 1 µg/mL) is reported as 0.94.

With `C=CCOc1ccccc1CNC1COc2c(cccc2OC)C1` (configuration not stated) the “bacterial growth OD600” value (polymyxin B 0.75 µg/mL) was 0.725.

For `CC(=O)NCC(=O)N1CCCC(C(=O)c2ccc3c4c(cccc24)CC3)C1` (configuration not stated), the “bacterial growth OD600” value (polymyxin B 1 µg/mL) was 0.798.

With `COc1cccc(-c2ccc(NC(=O)C3CCCN(Cc4cccnc4)C3)cc2)c1` (configuration not stated) the “bacterial growth OD600” value (polymyxin B 1 µg/mL) was 0.895.

For `CC(C)=CC(=O)NCCN1Cc2ccccc2OC(c2ccccc2F)C1` (configuration not stated), the “bacterial growth OD600” value (polymyxin B 0.75 µg/mL) was 0.044.

With `CC(Cn1cncn1)NCc1cn(C)nc1-c1ccc(C2CCCCC2)cc1` (configuration not stated) the “bacterial growth OD600” value (polymyxin B 1 µg/mL) was 0.011.

With `c1coc(CN2CCC(NC3CCCN(c4nc5ccccc5s4)C3)CC2)c1` (configuration not stated) the “bacterial growth OD600” value (polymyxin B 1 µg/mL) was 1.1.

In the case of `Cc1c(C(=O)N(C)C(C)C)sc2ncnc(NC[C@H]3C[C@@H]4C=C[C@H]3C4)c12`, the “bacterial growth OD600” value (polymyxin B 0.75 µg/mL) is reported as 0.011.

For `Cc1ccccc1N1CCN(c2ncccc2CNC(=O)C2CCCCO2)CC1` (configuration not stated), the “bacterial growth OD600” value (polymyxin B 1 µg/mL) was 0.082.

`COc1ccccc1CN(C)C(=O)c1cc(COc2cccc(F)c2)[nH]n1` was tested, and the “bacterial growth OD600” value (polymyxin B 1 µg/mL) was 0.742.

In the case of `O=C1CCC(C(=O)N2CCCCCCC2)CN1CCN1CCOCC1` (configuration not stated), the “bacterial growth OD600” value (polymyxin B 1 µg/mL) is reported as 1.26.
